The source of these data is publication PMC10163288.

First the molecules themselves.
B1: il2ra_site1_3nfp_sap_18_mot_HHH_b1_05070_af2_000000282_0001_43_57_H_._HHH_b1_01516_af2_0001_0000200009_0000001_0_0001_af2pred_dldesign_0_af2pred (protein)
chain: SSSSSSDPQKLFEEASKAYDAGKLEEAKELLEKARAAALAAGRHALARFIERCLKSLKSSSSSSS
B2: il2ra_site2_3nfp_normal_mot_HHH_b1_00553_af2_000000024_0001_18_52_H_._065ff1a2d9b8d7deec6d0c3749ab815f_0001_1_0001_0000300029_0000001_0 (protein)
chain: DELEEKLARLLAEDPDNHAIFVALALLIQLKEGEIPPEKIERALRRLLEELGDPLVEEVLEELER
B3: il2ra_site1_1z92_normal_mot_76fe7993c3ad9ffb2b2ee76f24d0ea53_0001_af2_000000057_0001_36_49_H_._4bbf342bb4568474bb2f38d9b0ee6fc8_0001_af2_0001_0000100008_0000001 … (protein)
chain: SSSSDEEELAEELVRELIEELGGSEELKEAAERDAKRSLEAGISEKSVRRALENAIRLTNSSSSS
B4: il2ra_site1_3nfp_sap_15_mot_46d73865503fbedcaf0f3a45445d594c_0001_af2_000000151_0001_1_12_H_._HEEHE_2475_0001_0000500042_0000001_0_0001_af2pred_0001_af2pred_swa … (protein)
chain: SSSSSQERIRELLKRAEELLKNGNPEEAEELLREALELAEERGSPNTRKFLEKALENIERSSSSS
B5: il2ra_site2_3nfp_sap_13_mot_HHH_b2_07749_000000092_0001_22_39_H_._0e2d25f789470a7fb5ac47814863eff0_0001_1_0001_0000100005_0000001_0_0001 (protein)
chain: SSSSDVEEFARELTEEAREKYEEGNPEEALEILLRAAAYVWERNDFEAFAILSELAQKIASSSSS
B6: il2ra_site2_3nfp_sap_20_mot_HHH_b2_06100_000000049_0001_1_16_H_._HHH_b1_05695_0001_0000700056_0000001_0_0001_af2pred_0001_1_af2pred_swapped (protein)
chain: SSSDETKEEVKKLLEEVEELIKQGNEEEARRVLKEAFRVAREGNDVEALVEVLELRRKLFQSSSS
B7: il2ra_site2_2erj_normal_mot_76e6e8f7232a9e65eeaab5ff8ecb4c96_0001_000000242_0001_17_31_H_._HHH_eva_0320_af2_0001_0000500007_0000001_1 (protein)
chain: SSTEEEEVRRVVEEAEELIKRGDLEEAEEVLSEAFTLVYELGDEELVILILELAHELVRLLAKSS
B8: il2ra_site1_1z92_sap_9_mot_HHH_b1_05973_af2_000000047_0001_39_50_H_._HHH_b2_00944_0001_0000500019_0000001_0_0001_af2pred_0001_af2pred (protein)
chain: SSSSSDKELVVRFLIEQLERKLELGNPRAAERVFEMARQVIEEAGDEELRELLEEVREELSSSSS
B9: il2ra_site2_2erj_sap_27_mot_HHH_b2_03845_000000122_0001_43_56_H_._HHH_b2_05868_0001_0000100002_0000001_0_0001_af2pred_dldesign_0_af2pred (protein)
chain: SSSSSSDPREEVLRLIEEAKKEKDPKKAKKLLIKAYYLAKKLGDEELIAKVKEVYEELSSSSSSS
B10: il2ra_site1_2b5i_normal_mot_HHH_b2_04910_000000118_0001_1_19_H_._HHH_b1_07627_af2_0001_0000400018_0000001_1_af2pred_dldesign_0_af2pred (protein)
chain: SSSSSLAEEARRLFLEADRLKQAGKEEEAKEVLEKALELAKAAGANLLARIIELALKDLESSSSS

The list shows a part of the results.

The target of the assay is il2ra, P01589. The experiment in a line: yeast display titration.
B1: the “apparent Kd” value is “inactive: no binding seen”.

In the case of B2, the “apparent Kd” value is “inactive: no binding seen”.

For the molecule B3, the “apparent Kd” value was “inactive: no binding seen”.

Consider B4, for which the “apparent Kd” value is “inactive: no binding seen”.

Turning to B5, the “apparent Kd” value was “inactive: no binding seen”.

With B6, the “apparent Kd” value is “inactive: no binding seen”.

For the molecule B7, the “apparent Kd” value is “inactive: no binding seen”.

For B8, the “apparent Kd” value was “inactive: no binding seen”.

Turning to B9, the “apparent Kd” value was “inactive: no binding seen”.

With B10, the “apparent Kd” value is “inactive: no binding seen”.
